Construct, isoform or probe ends are uncertain for at least one entry. Negatives hold for the conditions tested.
Tested on: rhHMGB3
Experiment: microplate aptamer binding assay
Settings: 1 mM Mg2+, 1 mM Ca2+, 5 nM aptamer; SHMCK: 20 mM Hepes, 120 mM NaCl, 5 mM KCl, 1 mM MgCl2, 1 mM CaCl2, pH 7.4, 37 C, 1 h; protein coated 2 pmol/well, 3% BSA block, PBST washes; commercial protein; folded or branched DNA

Sequence: GGACAAGAATCACCGCTCTGGGTTTGGCGTCGGGCCTGGCGAAAGGTGGTTGTGCGGAGAGAGCGTACAGGAGGCATACAG [H-ap25]
- binding result: no binding
